# Results reported in the supplement of paper PMC3334620.
# The full ranking holds about 33,000 sequences; the median of “E-score (-0.5 to 0.5)” is about -8e-05, and the highest 2% start at about 0.23. This is one part of the list.
# Target: T1, Nrg2 (UniProt P38082)
# T1 sequence: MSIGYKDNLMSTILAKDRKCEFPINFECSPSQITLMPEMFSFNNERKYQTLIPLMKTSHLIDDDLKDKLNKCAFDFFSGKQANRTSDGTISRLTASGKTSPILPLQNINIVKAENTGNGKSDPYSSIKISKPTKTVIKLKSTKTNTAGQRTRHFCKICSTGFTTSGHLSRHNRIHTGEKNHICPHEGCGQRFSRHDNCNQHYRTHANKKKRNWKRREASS
# Assay: PBM E-score (8-mer binding enrichment) (E-score (-0.5 to 0.5)); higher = stronger / more preferred TF binding
# Conditions: protein concentration: 100 nM; construct: GST-full length
# How it was run: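 Masliner-normalised scans of fluorescent anti-GST signal were the basis for scoring. That signal came from GST-tagged yeast transcription factors applied at about 100-200 nM to double-stranded universal all-10-mer Agilent arrays on fresh or once-stripped slides. Each ungapped eight-base word, pooled with its reverse complement, received an E-score from the Universal PBM Analysis Suite.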
row,Sequence,PBM E-score
1,CGGACTAA,0.0515
2,AGTTTTGC,-0.0161
3,AGGGATGG,0.096
4,TAGCTAAA,-0.119
5,GGGAAGAC,-0.199
6,ACGACGCA,0.132
7,AATCCCCA,0.124
8,CACACCAG,-0.105
9,CTTCGGGC,-0.122
10,GGTACTAC,0.074
11,GCGAAGCA,-0.0741
12,AGTGGCAT,0.0255
13,CCACTAAG,0.0758
14,CGCAGTTC,-0.102
15,AGTAGCCC,-0.0684
16,GGAGGACC,0.038
17,TATTGGGA,0.0355
18,AGATTTTA,-0.13
19,AGACTCAG,-0.0651
20,AGGACTGC,-0.277
21,CCCGATTA,0.135
22,CACCGATG,-0.132
23,GAATTCAC,0.0508
24,GTATCCAA,-0.00691

row,Sequence,PBM E-score
1,TCCAATCA,-0.0087
2,CTCGTTGA,-0.0627
3,AAATTAGA,0.179
4,CCATGTGA,-0.103
5,CACCGGAA,0.105
6,GAAAGTCC,-0.0312
7,ATTGACAG,-0.0166
8,ACCTTTGA,-0.121
9,ACGTCATG,-0.0113
10,ATTACGCG,0.129
11,CGGGTAAC,-0.096
12,ACCAGCGA,-0.0782
13,GCAATCGA,0.0467
14,ATCCTCAA,-0.0476
15,CAGCCGCA,0.0215
16,ACAAGGGT,0.189
17,AGTAGCAC,-0.0195
18,TCATGGAA,0.135
19,GGAACTCA,-0.0697
20,ACATGGGT,0.0938
21,TCATAGGA,0.147
22,CTGACCGC,0.105
23,AAGGATAG,-0.0667
24,TAAAGAAA,0.192

row,Sequence,PBM E-score
1,AGCTACGC,0.0344
2,ACGAACGC,0.267
3,ACGTTAGG,-0.123
4,ACTGAAAA,0.0324
5,ATCACCAG,0.073
6,GGTAGTCA,-0.0996
7,CGCGGATA,0.246
8,CTTAGCTA,-0.0163
9,ACGCCTCG,-0.0727
10,CTTCTCTC,-0.0976
11,GCGTTGTA,0.0316
12,CCATGAAA,0.189
13,CTAGCCAC,-0.25
14,GTGGGCGA,-0.029
15,GTATTCGA,0.0096
16,ACGGATCT,-0.128
17,CCGGAGAC,-0.0842
18,ACAGACCA,0.201
19,ATAGAACC,0.036
20,ACTAGTAT,0.246
21,CAGAGGAC,-0.0554
22,ACTATATC,0.182
23,GTCGGATA,0.0362
24,CGAGGCCA,0.02

# Random excerpt: 3 entries already listed.
row,Sequence,PBM E-score
13,CTAGCCAC,-0.25
24,CGAGGCCA,0.02
14,GTGGGCGA,-0.029

# (next part)

row,Sequence,PBM E-score
1,ATGGAGAG,-0.139
2,CATAGCTA,-0.0383
3,AATCTCCT,-0.09
4,AGGCGACG,0.122
5,GGGGACCC,0.143
6,CCCGTGAC,-0.114
7,GATTGCGC,0.0579
8,TCAGTCAA,-0.0607
9,ACAGCCAA,-0.127
10,GGCGACAA,-0.0104
11,CGCGGAAC,0.023
12,CAGGGCGC,0.228
13,AGTGTAAG,-0.051
14,CCCTAAGG,-0.0628
15,ACAAGGGC,-0.063
16,AGCGGAGA,0.0169
17,ATTTTGGC,0.207
18,ACAGGCCA,0.0163
19,ACTTTAAC,-0.14
20,ACTGGTTA,-0.0306
21,CGTCAATC,0.104
22,CAGTTGTA,0.016
